# Laboratory results: patent US20070004767A1, “Methods for treating neurofibromatosis 1” (priority 2005, published 2007)
# For at least one compound, name, drawing or mass did not settle the structure.
# What was measured:
# [1] = tested on: ribosomal S6 protein phosphorylation in Nf1−/− astrocytes; experiment: S6 phosphorylation (phospho-S6 Ser240/244 Western blot) in Nf1−/− astrocytes; type: cell-based, mouse; settings: 50 μM, FIG. 2C
# Description: (§1) Western blot analysis was performed as described previously in, for example, Dasgupta B et al., The Neurofibromatosis 1 Gene Product Neurofibromin Regulates Pituitary Adenylate Cyclase-Activating Polypeptide-Mediated Signaling in Astrocytes, J. NEUROSCI. 23:8949-8954 (2003). The following antibodies were used: anti-NF1GRP, nucleolin, and cyclin D1 (Santa Cruz Biotechnology, Santa Cruz, Calif.), phospho-S6 (Serine-240/244; Cell Signaling Technology, Beverley, Mass.), α-tubulin and fibrillarin (Sigma, St. Louis, Mo.), anti-T7 (Novagen, Madison, Wis.), anti-KT3 (Babco, Richmond, Calif.), NPM (Zymed, San Francisco, Calif.), and L7 (Novus Biologicals, Littleton, Colo.).
# (§2) One of the downstream targets of activated RAS is P13-Kinase. See Rodriguez-Viciana P, et al., Phosphatidylinositol-3-OH Kinase as a Direct Target of Ras, NATURE 370:527-532 (1994). In this regard, loss of neurofibromin expression is associated with activation of the PI3K-AKT signaling pathway in human NF1-associated pilocytic astrocytoma and in Nf1−/− mouse myeloid cells. […] To determine whether S6 hyperactivation in Nf1−/− astrocytes is downstream of PI3K and mTOR, S6 phosphorylation in both Nf1+/+ and Nf1−/− astrocytes in presence of a PI3K inhibitor (LY294002) and an mTOR inhibitor (rapamycin) was measured. […]
# [2] = tested on: ribosomal S6 protein phosphorylation in wild-type (Nf1+/+) astrocytes; experiment: S6 phosphorylation (phospho-S6 Ser240/244 Western blot) in wild-type astrocytes; type: cell-based, mouse; settings: 50 μM, FIG. 2C
# Description: as §1, §2
compound,measurement,setting,value
O=c1cc(N2CCOCC2)oc2c(-c3ccccc3)cccc12 [LY 294002],S6 phosphorylation,[1],completely inhibited
same,S6 phosphorylation,[2],completely inhibited
